Reference: PubChem BioAssay AID1259308 (NCATS, 2017)

Test: 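Knock-downs that increase output of a recombinant reporter protein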 (primary screen)
System: human HEK293 embryonic kidney cells stably expressing firefly luciferase (HEK-CMV-Luc2-Hygro)
Reagents: single siRNA against human genes, 0.8 pmol siRNA per well
Time to read-out: 72 h
Read-out: 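Luciferase light (ONE-Glo) measured on one replicate plate set and viability (CellTiter-Glo) on the other, scaled to a negative control siRNA, with robust z-scores and luciferase per cell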
Reading the numbers: total luciferase, z-score and total luciferase, % of control: higher = more reporter protein produced; luciferase per cell, z-score: higher = more reporter output per viable cell
Hit rule: 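Active when the median/MAD z-score for overall luciferase is greater than 3; a gene was taken forward for validation with new siRNAs if at least two of its three siRNAs passed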
Meaning of the calls: active = raised luciferase; inactive = no rise
The deposit covers about 59,000 reagents; shown is an unselected part. About 1,510 of all reagents (2.6%) were called active. 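Calls use total luciferase alone and ignore viability, so some active siRNAs may act by altering cell number.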 A number with no mark means an inactive call. Reagents against one gene are numbered here. Further read-outs or replicates are left out here.

Gene	reagent no.	total luciferase, z-score	total luciferase, % of control	luciferase per cell, z-score
ADGRE5 (GeneID 976)	1	2.49	131	2.9
ADGRE5 (GeneID 976)	2	-1.35	55.1	-1.43
ADGRE5 (GeneID 976)	3	1.31	108	0.906
RHBDL2 (GeneID 54933)	1	0.0874	83.6	-0.0811
RHBDL2 (GeneID 54933)	2	-0.777	66.4	-1.59
RHBDL2 (GeneID 54933)	3	0.476	91.4	0.354
ZNF655 (GeneID 79027)	1	-0.832	65.3	-1.04
ZNF655 (GeneID 79027)	2	0.274	87.3	0.565
ZNF655 (GeneID 79027)	3	-1.45	53.1	0.306
OSER1 (GeneID 51526)	1	-1.01	61.8	-1.06
OSER1 (GeneID 51526)	2	-0.485	72.2	-0.938
OSER1 (GeneID 51526)	3	-0.392	74.1	-0.325
RPS5 (GeneID 6193)	1	-2.12	39.7	-1.27
RPS5 (GeneID 6193)	2	-2.88	24.6	-2.12
RPS5 (GeneID 6193)	3	-3.5	12.4	-6.18
ATP11A (GeneID 23250)	1	0.246	86.8	0.133
ATP11A (GeneID 23250)	2	-0.507	71.8	-1.04
ATP11A (GeneID 23250)	3	0.561	93	0.0027
PTCHD3 (GeneID 374308)	1	0.0236	82.4	0.256
PTCHD3 (GeneID 374308)	2	-0.269	76.5	-0.144
PTCHD3 (GeneID 374308)	3	-1.03	61.3	-1.09
CCDC74A (GeneID 90557)	1	-0.681	68.3	-0.869
CCDC74A (GeneID 90557)	2	0.928	100	1.18
CCDC74A (GeneID 90557)	3	-0.505	71.8	-0.628
PLCB3 (GeneID 5331)	1	1.31	108	1.84
PLCB3 (GeneID 5331)	2	0.277	87.4	-0.312
PLCB3 (GeneID 5331)	3	2.15	125	1.67
CLIP4 (GeneID 79745)	1	-0.557	70.8	-0.62
CLIP4 (GeneID 79745)	2	-0.408	73.8	-0.63
CLIP4 (GeneID 79745)	3	0.154	85	-0.384
TM6SF1 (GeneID 53346)	1	-1.45	53.1	-1.13
TM6SF1 (GeneID 53346)	2	0.125	84.4	0.0318
TM6SF1 (GeneID 53346)	3	-0.281	76.3	-0.119
CDY2A (GeneID 9426)	1	0.683	95.5	0.816
CDY2A (GeneID 9426)	2	0.119	84.3	-0.0776
CDY2A (GeneID 9426)	3	0.411	90.1	-0.36
PAGR1 (GeneID 79447)	1	-1.19	58.3	-0.926
PAGR1 (GeneID 79447)	2	2.69	135	2.73
PAGR1 (GeneID 79447)	3	-1.12	59.6	-0.313
TNXB (GeneID 7148)	1	-0.43	73.3	-0.339
TNXB (GeneID 7148)	2	0.453	90.9	-0.367
TNXB (GeneID 7148)	3	3.25 (active)	146	1.38
STRA8 (GeneID 346673)	1	1.59	114	1.41
STRA8 (GeneID 346673)	2	1.08	103	0.822
STRA8 (GeneID 346673)	3	0.327	88.4	0.565
GSC (GeneID 145258)	1	-0.589	70.2	-0.974
GSC (GeneID 145258)	2	0.201	85.9	0.103
GSC (GeneID 145258)	3	-0.24	77.1	-0.594
MEDAG (GeneID 84935)	1	-0.0796	80.3	-0.165
MEDAG (GeneID 84935)	2	0.897	99.7	1.31
MEDAG (GeneID 84935)	3	-0.306	75.8	-0.378
PEBP1 (GeneID 5037)	1	-0.285	76.2	-0.501
PEBP1 (GeneID 5037)	2	1.54	113	1.39
PEBP1 (GeneID 5037)	3	0.133	84.5	0.0656
GCSAM (GeneID 257144)	1	0.293	87.7	-0.306
GCSAM (GeneID 257144)	2	0.147	84.8	-0.278
GCSAM (GeneID 257144)	3	2.86	139	2.31
HELT (GeneID 391723)	1	0.878	99.4	0.881
HELT (GeneID 391723)	2	0.273	87.3	-0.116
HELT (GeneID 391723)	3	0.134	84.6	0.383
IFNGR1 (GeneID 3459)	1	0.599	93.8	0.221
IFNGR1 (GeneID 3459)	2	1.14	104	0.306
IFNGR1 (GeneID 3459)	3	-0.114	79.6	-0.535
USP17L2 (GeneID 377630)	1	1.2	106	2.01
USP17L2 (GeneID 377630)	2	-0.6	70	-0.781
USP17L2 (GeneID 377630)	3	0.797	97.7	0.351
CLECL1 (GeneID 160365)	1	0.00813	82	-0.484
CLECL1 (GeneID 160365)	2	-0.18	78.3	-0.552
CLECL1 (GeneID 160365)	3	-0.782	66.3	-0.501
TMEM132D (GeneID 121256)	1	-0.114	79.6	0.457
TMEM132D (GeneID 121256)	2	-0.478	72.4	-0.748
TMEM132D (GeneID 121256)	3	0.697	95.8	0.132
PLXND1 (GeneID 23129)	1	-1.16	58.7	-1.17
PLXND1 (GeneID 23129)	2	1.81	118	1.05
PLXND1 (GeneID 23129)	3	-0.0843	80.2	-0.5

9 of these entries in another layout:
{"Gene":"RPS5 (GeneID 6193)","reagent no.":1,"total luciferase, z-score":-2.12,"total luciferase, % of control":39.7,"luciferase per cell, z-score":-1.27}
{"Gene":"RPS5 (GeneID 6193)","reagent no.":2,"total luciferase, z-score":-2.88,"total luciferase, % of control":24.6,"luciferase per cell, z-score":-2.12}
{"Gene":"RPS5 (GeneID 6193)","reagent no.":3,"total luciferase, z-score":-3.5,"total luciferase, % of control":12.4,"luciferase per cell, z-score":-6.18}
{"Gene":"ATP11A (GeneID 23250)","reagent no.":1,"total luciferase, z-score":0.246,"total luciferase, % of control":86.8,"luciferase per cell, z-score":0.133}
{"Gene":"ATP11A (GeneID 23250)","reagent no.":2,"total luciferase, z-score":-0.507,"total luciferase, % of control":71.8,"luciferase per cell, z-score":-1.04}
{"Gene":"ATP11A (GeneID 23250)","reagent no.":3,"total luciferase, z-score":0.561,"total luciferase, % of control":93,"luciferase per cell, z-score":0.0027}
{"Gene":"PTCHD3 (GeneID 374308)","reagent no.":1,"total luciferase, z-score":0.0236,"total luciferase, % of control":82.4,"luciferase per cell, z-score":0.256}
{"Gene":"PTCHD3 (GeneID 374308)","reagent no.":2,"total luciferase, z-score":-0.269,"total luciferase, % of control":76.5,"luciferase per cell, z-score":-0.144}
{"Gene":"PTCHD3 (GeneID 374308)","reagent no.":3,"total luciferase, z-score":-1.03,"total luciferase, % of control":61.3,"luciferase per cell, z-score":-1.09}
